PubChem BioAssay AID652259 – Drosophila RNAi Screening Center, 2013
The deposit covers about 22,000 reagents; this is a random part of those that have a named target and a result. Of all reagents, 233 (1.1%) got an active call. 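Light values are raw, unnormalised plate reads; the ratio scores behind the reporter calls were not deposited.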 A number with no mark means an inactive call. A plus sign joins genes that one reagent is predicted to hit. No sequences are given here. The record does not give: the amount of reagent, the time to read-out, the dose of the treatment.

Aim: 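Genome-wide hunt for genes that control Wingless pathway activity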 (primary screen)
System: Drosophila clone 8 imaginal disc epithelial cells
Reagents: long dsRNA against Drosophila genes
Treatment: pathway stimulated by co-transfected Wingless expression plasmid
Detection: 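Firefly luciferase from a tcf-site Wingless reporter, measured alongside co-transfected Renilla luciferase that tracks transfection; pathway stimulated by a Wingless plasmid; the firefly-to-Renilla ratio is not deposited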
Scale: firefly reporter light: higher = more Wg reporter light, before normalisation; Renilla control light: higher = more transfected or surviving cells
Rule for the call: 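a knock-down is a candidate when at least two out of four statistical tests show it departing from its plate mean; one test alone signals a weak candidate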
Calls: active = candidate regulator (raises or lowers reporter); inactive = not a candidate

no.	target gene	dsRNA	reporter change call, replicate 1	firefly reporter light, replicate 1	firefly reporter light, replicate 2	Renilla control light, replicate 1	Renilla control light, replicate 2
1	CG6674	DRSC10692		4278		1667	
2	slpr	DRSC18225		3059	4912	896	1992
3	HDAC6	DRSC20252		4002	6486	1434	3497
4	mahj	DRSC04053		5204		2171	
5	CG14280	DRSC14761		10416		2435	
6	CG13427	DRSC06389		8027		2193	
7	sta	DRSC18838		19848		14150	
8	CG15005	DRSC08459		8929		4008	
9	Cyp6w1	DRSC04909		7381		3217	
10	Cyp6a15Psi	DRSC07377		2132	6674	785	2615
11	Spc25	DRSC14164		20648		2733	
12	mus81	DRSC18180		23885		16576	
13	mus81	DRSC18644		19448		14114	
14	CG5555	DRSC15834		1756	6230	520	2630
15	CG1271	DRSC08290		4707		848	
16	CG6136	DRSC15975		7585		2954	
17	koko + Vti1b	DRSC16283		3253	6096	1323	2342
18	koko + Vti1b	DRSC16284		15106		2583	
19	CIAPIN1	DRSC03559		6013		1203	
20	CG9368	DRSC11067		6406		2135	
21	edin	DRSC09488		4183		1786	
22	vex	DRSC19481		23457		10821	
23	vex	DRSC19651		23741		11769	
24	vex	DRSC21843		4.56e5	4.61e5	1.73e5	1.96e5
25	side-V	DRSC04188		5106	11320	1235	4352
26	side-V	DRSC04189		4352		1104	
27	side-V	DRSC22266		5.14e5	5.06e5	1.10e5	97002
28	FucTA	DRSC10733		6992		2643	
29	yellow-c + CIAPIN1	DRSC01898		2912	4868	1056	2736
30	CG17134	DRSC02583		2827	5872	1085	2819

6 of these entries, reformatted:
target gene | dsRNA | reporter change call, replicate 1 | firefly reporter light, replicate 1 | firefly reporter light, replicate 2 | Renilla control light, replicate 1 | Renilla control light, replicate 2
mus81 | DRSC18180 | – | 23885 | – | 16576 | –
mus81 | DRSC18644 | – | 19448 | – | 14114 | –
CG5555 | DRSC15834 | – | 1756 | 6230 | 520 | 2630
CG1271 | DRSC08290 | – | 4707 | – | 848 | –
CG6136 | DRSC15975 | – | 7585 | – | 2954 | –
koko + Vti1b | DRSC16283 | – | 3253 | 6096 | 1323 | 2342

The list goes on:
no.	target gene	dsRNA	reporter change call, replicate 1	firefly reporter light, replicate 1	firefly reporter light, replicate 2	Renilla control light, replicate 1	Renilla control light, replicate 2
31	stac	DRSC13693		2897		1117	
32	stac	DRSC14392		21920		12885	
33	stac	DRSC22197		5.64e5	8.15e5	2.53e5	3.58e5
34	CG31219	DRSC15140		16176		2816	
35	CG15047	DRSC19623		36035		19220	
36	CG15047	DRSC21443		3.81e5	4.17e5	1.77e5	1.46e5
37	sti	DRSC09739		5756		2326	
38	sti	DRSC09740		5001		2074	
39	CG9391	DRSC11858		11687		3328	
40	CG34125	DRSC00850		19800		8167	
41	Smr	DRSC19495	Wg reporter activity raised (active)	3020	7409	240	544
42	Smr	DRSC20288	Wg reporter activity raised	26091		3472	
43	CG8708	DRSC07240		4698		1719	
44	LanB2	DRSC11208		3362		1442	
45	Etf-QO	DRSC06111		2763	5159	518	1984
46	Icmt	DRSC09834		5372		2631	
47	lute	DRSC14812		13607		2945	
48	lute	DRSC15769		3574	6853	1205	1873
49	l(1)G0004	DRSC20486		3536	5207	1581	2320
